Assay results from paper doi:10.1101/2023.03.29.534689.
These are yes or no findings as the source states them, for the method shown.

Target: T1, DCLK1.2 (human Doublecortin Like Kinase 1, isoform 2), purified recombinant protein (human), O15075
T1 chain: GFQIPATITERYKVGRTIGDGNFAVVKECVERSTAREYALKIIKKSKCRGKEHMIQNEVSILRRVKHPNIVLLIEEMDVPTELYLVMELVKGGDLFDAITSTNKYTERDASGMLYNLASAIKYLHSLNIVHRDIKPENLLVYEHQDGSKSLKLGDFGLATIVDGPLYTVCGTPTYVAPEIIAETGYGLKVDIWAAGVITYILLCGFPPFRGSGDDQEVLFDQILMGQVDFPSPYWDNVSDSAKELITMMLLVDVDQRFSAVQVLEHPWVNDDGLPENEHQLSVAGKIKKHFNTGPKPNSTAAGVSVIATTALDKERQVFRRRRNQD
Experiment: SEC; analytical SEC on Superdex 200 Increase 10/300 GL, 1 mg of each DCLK1 protein; standards BSA, carbonic anhydrase, alcohol dehydrogenase; fractions checked by SDS-PAGE; both purified
Conditions: remark: other sources report otherwise

- binding: no binding (tested: 1 mg loaded)
B1: DCLK1.2 (human Doublecortin Like Kinase 1, isoform 2), purified recombinant protein, O15075-1 379-704 (domain or fragment)
chain: GFQIPATITERYKVGRTIGDGNFAVVKECVERSTAREYALKIIKKSKCRGKEHMIQNEVSILRRVKHPNIVLLIEEMDVPTELYLVMELVKGGDLFDAITSTNKYTERDASGMLYNLASAIKYLHSLNIVHRDIKPENLLVYEHQDGSKSLKLGDFGLATIVDGPLYTVCGTPTYVAPEIIAETGYGLKVDIWAAGVITYILLCGFPPFRGSGDDQEVLFDQILMGQVDFPSPYWDNVSDSAKELITMMLLVDVDQRFSAVQVLEHPWVNDDGLPENEHQLSVAGKIKKHFNTGPKPNSTAAGVSVIATTALDKERQVFRRRRNQD
